Test results: the supplement of paper PMC7661543
± gives the standard deviation of the averaged measurements. The effect of the compound repeats well; differences between the knockouts mostly do not.

System: HCC-38
Assay: relative cell number vs DMSO control (72 h) (% of DMSO); higher = less growth inhibition (more cells)
Description: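 QMAP-Seq: a pool of 5 breast cancer cell lines (ZR-75-1, SKBR3, HCC-38, MDA-MB-231, BT-20), each carrying 12 doxycycline-inducible Cas9 sgRNA perturbations (11 knockouts plus non-targeting sgNT), was treated with compounds for 72 h at four 10-fold doses (10 nM-10 uM or 1 nM-1 uM range). Barcodes were amplified and sequenced, and cell number was interpolated from 293T spike-in standard curves. The result is expressed as % of the median of DMSO wells. Two biological replicates.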

Fc1ccc(CNc2ncnc3ccc(F)cc23)cc1 [Spautin1]
Conditions | relative cell number
sgRNA knockout: sgATF3, 10 nM | 99.647 ± 0.019
sgRNA knockout: sgATF3, 100 nM | 96.6 ± 5.3
sgRNA knockout: sgATF3, 1000 nM | 113 ± 5
sgRNA knockout: sgATF3, 10000 nM | 102.9 ± 0.87
sgRNA knockout: sgATF4, 10 nM | 103 ± 20
sgRNA knockout: sgATF4, 100 nM | 102 ± 1.7
sgRNA knockout: sgATF4, 1000 nM | 105 ± 11
sgRNA knockout: sgATF4, 10000 nM | 112 ± 4.1
sgRNA knockout: sgATF6, 10 nM | 108 ± 4.9
sgRNA knockout: sgATF6, 100 nM | 101.34 ± 0.096
sgRNA knockout: sgATF6, 1000 nM | 109 ± 25
sgRNA knockout: sgATF6, 10000 nM | 102 ± 21
sgRNA knockout: sgATG7, 10 nM | 95.7 ± 2.2
sgRNA knockout: sgATG7, 100 nM | 102 ± 2.5
sgRNA knockout: sgATG7, 1000 nM | 104 ± 10
sgRNA knockout: sgATG7, 10000 nM | 110 ± 9.7
sgRNA knockout: sgERN1, 10 nM | 98.39 ± 0.17
sgRNA knockout: sgERN1, 100 nM | 98.8 ± 8
sgRNA knockout: sgERN1, 1000 nM | 101 ± 4
sgRNA knockout: sgERN1, 10000 nM | 108 ± 8.2
sgRNA knockout: sgHSF1, 10 nM | 95.3 ± 3.4
sgRNA knockout: sgHSF1, 100 nM | 92.7 ± 15
sgRNA knockout: sgHSF1, 1000 nM | 94.2 ± 1.9
sgRNA knockout: sgHSF1, 10000 nM | 126 ± 27
sgRNA knockout: sgHSF2, 10 nM | 104 ± 13
sgRNA knockout: sgHSF2, 100 nM | 99.4 ± 7.9
sgRNA knockout: sgHSF2, 1000 nM | 104 ± 1.7
sgRNA knockout: sgHSF2, 10000 nM | 120 ± 12
sgRNA knockout: sgKEAP1, 10 nM | 88.4 ± 7.7
sgRNA knockout: sgKEAP1, 100 nM | 95.4 ± 29
sgRNA knockout: sgKEAP1, 1000 nM | 103 ± 25
sgRNA knockout: sgKEAP1, 10000 nM | 107 ± 7
sgRNA knockout: sgNFE2L2, 10 nM | 105 ± 12
sgRNA knockout: sgNFE2L2, 100 nM | 103 ± 15
sgRNA knockout: sgNFE2L2, 1000 nM | 102 ± 7.5
sgRNA knockout: sgNFE2L2, 10000 nM | 112 ± 16
sgRNA knockout: sgSLC35F2, 10 nM | 98.8 ± 11
sgRNA knockout: sgSLC35F2, 100 nM | 97.3 ± 7.6
sgRNA knockout: sgSLC35F2, 1000 nM | 103 ± 2.3
sgRNA knockout: sgSLC35F2, 10000 nM | 97.73 ± 0.15
sgRNA knockout: sgXBP1, 10 nM | 107 ± 10
sgRNA knockout: sgXBP1, 100 nM | 97.4 ± 10
sgRNA knockout: sgXBP1, 1000 nM | 101 ± 2.2
sgRNA knockout: sgXBP1, 10000 nM | 116 ± 6.9

NC(=O)Nc1sc(-c2ccc(F)cc2)cc1C(N)=O [TPCA1]
Conditions | relative cell number
sgRNA knockout: sgATF3, 10 nM | 99 ± 2.5
sgRNA knockout: sgATF3, 100 nM | 87.9 ± 1.1
sgRNA knockout: sgATF3, 1000 nM | 120 ± 5.3
sgRNA knockout: sgATF3, 10000 nM | 71.1 ± 2.2
sgRNA knockout: sgATF4, 10 nM | 79.5 ± 7.5
sgRNA knockout: sgATF4, 100 nM | 88.8 ± 4.2
sgRNA knockout: sgATF4, 1000 nM | 107 ± 5
sgRNA knockout: sgATF4, 10000 nM | 78.3 ± 2.1
sgRNA knockout: sgATF6, 10 nM | 96 ± 7.1
sgRNA knockout: sgATF6, 100 nM | 105 ± 7.2
sgRNA knockout: sgATF6, 1000 nM | 106 ± 5.1
sgRNA knockout: sgATF6, 10000 nM | 69.1 ± 9.7
sgRNA knockout: sgATG7, 10 nM | 87.3 ± 4.8
sgRNA knockout: sgATG7, 100 nM | 87.48 ± 0.79
sgRNA knockout: sgATG7, 1000 nM | 116 ± 7.6
sgRNA knockout: sgATG7, 10000 nM | 78.8 ± 1.7
sgRNA knockout: sgERN1, 10 nM | 92.939 ± 0.032
sgRNA knockout: sgERN1, 100 nM | 100 ± 11
sgRNA knockout: sgERN1, 1000 nM | 107 ± 3.7
sgRNA knockout: sgERN1, 10000 nM | 74.2 ± 2.9
sgRNA knockout: sgHSF1, 10 nM | 115 ± 9.4
sgRNA knockout: sgHSF1, 100 nM | 110 ± 15
sgRNA knockout: sgHSF1, 1000 nM | 108 ± 12
sgRNA knockout: sgHSF1, 10000 nM | 79.3 ± 5.6
sgRNA knockout: sgHSF2, 10 nM | 102.5 ± 0.62
sgRNA knockout: sgHSF2, 100 nM | 100 ± 5.6
sgRNA knockout: sgHSF2, 1000 nM | 112 ± 20
sgRNA knockout: sgHSF2, 10000 nM | 80.7 ± 3
sgRNA knockout: sgKEAP1, 10 nM | 118 ± 2.6
sgRNA knockout: sgKEAP1, 100 nM | 127 ± 13
sgRNA knockout: sgKEAP1, 1000 nM | 102 ± 18
sgRNA knockout: sgKEAP1, 10000 nM | 82.3 ± 8.9
sgRNA knockout: sgNFE2L2, 10 nM | 81.7 ± 2.8
sgRNA knockout: sgNFE2L2, 100 nM | 86.04 ± 0.37
sgRNA knockout: sgNFE2L2, 1000 nM | 110 ± 2.1
sgRNA knockout: sgNFE2L2, 10000 nM | 70.6 ± 11
sgRNA knockout: sgSLC35F2, 10 nM | 96.1 ± 9.4
sgRNA knockout: sgSLC35F2, 100 nM | 91.6 ± 5.7
sgRNA knockout: sgSLC35F2, 1000 nM | 110 ± 2.3
sgRNA knockout: sgSLC35F2, 10000 nM | 76.1 ± 6.4
sgRNA knockout: sgXBP1, 10 nM | 94.8 ± 3.3
sgRNA knockout: sgXBP1, 100 nM | 93.3 ± 7
sgRNA knockout: sgXBP1, 1000 nM | 115 ± 2.9
sgRNA knockout: sgXBP1, 10000 nM | 79.4 ± 12

Cn1nnc2c(C(N)=O)ncn2c1=O [Temozolomide]
Conditions | relative cell number
sgRNA knockout: sgATF3, 10 nM | 125 ± 18
sgRNA knockout: sgATF3, 100 nM | 92.3 ± 9
sgRNA knockout: sgATF3, 1000 nM | 119 ± 7.2
sgRNA knockout: sgATF3, 10000 nM | 140 ± 19
sgRNA knockout: sgATF4, 10 nM | 118 ± 5.8
sgRNA knockout: sgATF4, 100 nM | 89.2 ± 6
sgRNA knockout: sgATF4, 1000 nM | 119.9 ± 0.66
sgRNA knockout: sgATF4, 10000 nM | 139 ± 15
sgRNA knockout: sgATF6, 10 nM | 126 ± 5.6
sgRNA knockout: sgATF6, 100 nM | 105 ± 4.5
sgRNA knockout: sgATF6, 1000 nM | 137 ± 30
sgRNA knockout: sgATF6, 10000 nM | 142 ± 24
sgRNA knockout: sgATG7, 10 nM | 119 ± 16
sgRNA knockout: sgATG7, 100 nM | 90 ± 5.4
sgRNA knockout: sgATG7, 1000 nM | 116 ± 2.1
sgRNA knockout: sgATG7, 10000 nM | 140 ± 19
sgRNA knockout: sgERN1, 10 nM | 118.2 ± 0.97
sgRNA knockout: sgERN1, 100 nM | 95.5 ± 5.8
sgRNA knockout: sgERN1, 1000 nM | 130 ± 27
sgRNA knockout: sgERN1, 10000 nM | 145 ± 18
sgRNA knockout: sgHSF1, 10 nM | 121 ± 3.9
sgRNA knockout: sgHSF1, 100 nM | 111 ± 7.3
sgRNA knockout: sgHSF1, 1000 nM | 120 ± 8.7
sgRNA knockout: sgHSF1, 10000 nM | 173 ± 64
sgRNA knockout: sgHSF2, 10 nM | 127.8 ± 1
sgRNA knockout: sgHSF2, 100 nM | 108.2 ± 0.94
sgRNA knockout: sgHSF2, 1000 nM | 127 ± 4.1
sgRNA knockout: sgHSF2, 10000 nM | 138 ± 28
sgRNA knockout: sgKEAP1, 10 nM | 150 ± 28
sgRNA knockout: sgKEAP1, 100 nM | 127 ± 18
sgRNA knockout: sgKEAP1, 1000 nM | 148 ± 9.1
sgRNA knockout: sgKEAP1, 10000 nM | 181 ± 41
sgRNA knockout: sgNFE2L2, 10 nM | 117 ± 15
sgRNA knockout: sgNFE2L2, 100 nM | 87.1 ± 4.6
sgRNA knockout: sgNFE2L2, 1000 nM | 118 ± 8.8
sgRNA knockout: sgNFE2L2, 10000 nM | 126 ± 14
sgRNA knockout: sgSLC35F2, 10 nM | 116 ± 6.1
sgRNA knockout: sgSLC35F2, 100 nM | 99.5 ± 4.6
sgRNA knockout: sgSLC35F2, 1000 nM | 117 ± 8.2
sgRNA knockout: sgSLC35F2, 10000 nM | 136 ± 20
sgRNA knockout: sgXBP1, 10 nM | 121 ± 18
sgRNA knockout: sgXBP1, 100 nM | 90.5 ± 6.1
sgRNA knockout: sgXBP1, 1000 nM | 125 ± 5
sgRNA knockout: sgXBP1, 10000 nM | 140 ± 19
